Measurements as given in the supplement of paper PMC12669797.
Only a part is listed here, and it is no random draw.

The molecules below were run on ES2 (assay: cell viability relative to DMSO control (MTS) (fraction of DMSO control); higher = more viable cells / less growth inhibition). Settings: 10 µM; 48 h.
Description: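 SCADS inhibitor kit III (367 inhibitors) screened at 10 µM final concentration on TOV-21G (HNF-1ß positive) and ES2 (HNF-1ß negative) ovarian clear cell carcinoma cells seeded at 5000 cells/well in 96-well plates. Cell viability was read by MTS assay 48 h after compound addition and expressed relative to DMSO control wells (N=3).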

SMILES	cell viability
O=C1Nc2ccc(-c3cccnc3)cc2/C1=C/c1ccc[nH]1 [JAK3 Inhibitor VI]	0.536
